Results deposited as PubChem BioAssay AID1159584 (Peter MacCallum Cancer Centre, 2016)
Here is a random part of about 18,000 reagents. Not all columns of the deposit are shown. Not stated in the record: the amount of reagent, the time to read-out.

- Test: 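Knock-downs that harm CDH1-null cells more than parental MCF10A cells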 (primary screen)
- Cells: human MCF10A breast epithelial cells, parental and CDH1-null
- Knock-down reagent: siRNA against human genes
- Detection: 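Cell viability by CellTiter-Glo ATP luminescence, each line scaled to the mean of mock wells across plates, then CDH1-null over parental ratio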
- Scale: CDH1-null / parental viability ratio: higher = CDH1-null cells survive relatively better than parental; CDH1-null viability vs mock: higher = more viable CDH1-null cells
- Units: CDH1-null viability vs mock in fraction of mock

After knock-down of SERPINB8 (serpin family B member 8), the screen gave CDH1-null / parental viability ratio 1.14; CDH1-null viability vs mock 0.84. PPIE (peptidylprolyl isomerase E) showed CDH1-null / parental viability ratio 0.76; CDH1-null viability vs mock 0.57. For ABRA (actin binding Rho activating protein) the deposit lists CDH1-null / parental viability ratio 0.91; CDH1-null viability vs mock 0.64. After knock-down of VAX1 (ventral anterior homeobox 1), the screen gave CDH1-null / parental viability ratio 0.87; CDH1-null viability vs mock 0.71. With knock-down of IFNA21 (interferon alpha 21), the screen gave CDH1-null / parental viability ratio 1.38; CDH1-null viability vs mock 0.88. Against AIRIM (AFG2 interacting ribosome maturation factor), the values are CDH1-null / parental viability ratio 1.4; CDH1-null viability vs mock 0.59.

For PTGDS (prostaglandin D2 synthase), the entry reads CDH1-null / parental viability ratio 1.34; CDH1-null viability vs mock 1.15. IFT74 (intraflagellar transport 74) scored CDH1-null / parental viability ratio 0.93; CDH1-null viability vs mock 0.71. For MAP3K13 (mitogen-activated protein kinase kinase kinase 13) the deposit lists CDH1-null / parental viability ratio 0.88; CDH1-null viability vs mock 0.73. With knock-down of WDR37 (WD repeat domain 37), the record shows CDH1-null / parental viability ratio 1.26; CDH1-null viability vs mock 0.48. After knock-down of TNFRSF10B (TNF receptor superfamily member 10b), the record shows CDH1-null / parental viability ratio 1.02; CDH1-null viability vs mock 1. Against DYRK1B, the values are CDH1-null / parental viability ratio 0.96; CDH1-null viability vs mock 0.86.

Depletion of FAM3B (FAM3 metabolism regulating signaling molecule B) resulted in: CDH1-null / parental viability ratio 1.05; CDH1-null viability vs mock 0.86. ARRDC2 (arrestin domain containing 2) showed CDH1-null / parental viability ratio 1.1; CDH1-null viability vs mock 0.92.

No new results follow: 2 of the entries above.
VAX1 (ventral anterior homeobox 1): CDH1-null / parental viability ratio = 0.87; CDH1-null viability vs mock = 0.71
IFNA21 (interferon alpha 21): CDH1-null / parental viability ratio = 1.38; CDH1-null viability vs mock = 0.88

The listing continues.
Against CCDC190 (coiled-coil domain containing 190) the deposit lists CDH1-null / parental viability ratio 0.96; CDH1-null viability vs mock 0.72. ARPIN (actin related protein 2/3 complex inhibitor) scored CDH1-null / parental viability ratio 0.98; CDH1-null viability vs mock 0.45. KAAG1 (kidney associated DCDC2 antisense RNA 1) gave CDH1-null / parental viability ratio 0.9; CDH1-null viability vs mock 0.54. For SLC35D1 the deposit lists CDH1-null / parental viability ratio 1.12; CDH1-null viability vs mock 0.92. Knock-down of REM1 (RRAD and GEM like GTPase 1) gave: CDH1-null / parental viability ratio 0.86; CDH1-null viability vs mock 0.55. Knock-down of TGM4 (transglutaminase 4) resulted in: CDH1-null / parental viability ratio 0.81; CDH1-null viability vs mock 0.58.

FOS (Fos proto-oncogene, AP-1 transcription factor subunit) gave CDH1-null / parental viability ratio 0.94; CDH1-null viability vs mock 0.78. For LINGO2 (leucine rich repeat and Ig domain containing 2), the values are CDH1-null / parental viability ratio 0.85; CDH1-null viability vs mock 0.46. Silencing of SLC39A2 gave: CDH1-null / parental viability ratio 1.03; CDH1-null viability vs mock 0.64. BTBD8 (BTB domain containing 8) scored CDH1-null / parental viability ratio 0.93; CDH1-null viability vs mock 0.82. Against KPNA1 (karyopherin subunit alpha 1), the values are CDH1-null / parental viability ratio 0.93; CDH1-null viability vs mock 0.84. Against FOXRED2 (FAD dependent oxidoreductase domain containing 2), the values are CDH1-null / parental viability ratio 0.79; CDH1-null viability vs mock 0.75.

For TOPBP1 (DNA topoisomerase II binding protein 1) the deposit lists CDH1-null / parental viability ratio 1.01; CDH1-null viability vs mock 0.73. For MX2 (MX dynamin like GTPase 2), the entry reads CDH1-null / parental viability ratio 1.09; CDH1-null viability vs mock 0.38. With knock-down of KRT26 (keratin 26), the screen gave CDH1-null / parental viability ratio 0.85; CDH1-null viability vs mock 0.58. After knock-down of HSPA4L (heat shock protein family A (Hsp70) member 4 like), the screen gave CDH1-null / parental viability ratio 0.93; CDH1-null viability vs mock 1.01. Depletion of PLSCR4 (phospholipid scramblase 4) gave: CDH1-null / parental viability ratio 0.98; CDH1-null viability vs mock 1. With knock-down of LILRB1 (leukocyte immunoglobulin like receptor B1), the screen gave CDH1-null / parental viability ratio 1.14; CDH1-null viability vs mock 1.06.

Depletion of SLC8B1 came out at: CDH1-null / parental viability ratio 1.19; CDH1-null viability vs mock 1.33. Depletion of UBP1 (upstream binding protein 1) resulted in: CDH1-null / parental viability ratio 0.77; CDH1-null viability vs mock 0.6. Depletion of S100A9 (S100 calcium binding protein A9) gave: CDH1-null / parental viability ratio 1.2; CDH1-null viability vs mock 0.96.
